No constants are given. Whether binding was seen depends on the method and setting. In cells and extracts the contact can be indirect. Some results given as binding are weak or reduced against the parent protein; the word gives no strength. For some of these results: Sequences can lack the tags named with a protein.
Key:
[1] = target: GST-PKM2 (UniProt P14618); assay: pull-down; GST-PKM2 induced by IPTG; anti-GST antibodies precipitated Flag-TRIB2 (Fig. S1G); source of Flag-TRIB2 not told
[2] = target: PKM2 (M2 isoform of pyruvate kinase), endogenous (human (endogenous in A549 and in patients' lung cancer tissues)) (UniProt P14618); assay: co-IP; lysates of A549 cells (endogenous proteins, or GFP-TRIB2-overexpressed cells) incubated with primary antibodies or control IgG overnight at 4 °C, protein G/A beads 2 h at 4 °C; immunoblotting
[3] = target: GST-PKM2 (UniProt P14618); assay: pull-down; GST-fusion protein from E. coli bound to GST beads, incubated with cell lysates (A549, H1299 or other cells) for 4 h at 4 °C; adsorbed proteins by immunoblotting; the results call it Co-IP with anti-GST antibodies; only the target purified

Amino acid sequences for entries named in this document (tags omitted).
UniProt P14618: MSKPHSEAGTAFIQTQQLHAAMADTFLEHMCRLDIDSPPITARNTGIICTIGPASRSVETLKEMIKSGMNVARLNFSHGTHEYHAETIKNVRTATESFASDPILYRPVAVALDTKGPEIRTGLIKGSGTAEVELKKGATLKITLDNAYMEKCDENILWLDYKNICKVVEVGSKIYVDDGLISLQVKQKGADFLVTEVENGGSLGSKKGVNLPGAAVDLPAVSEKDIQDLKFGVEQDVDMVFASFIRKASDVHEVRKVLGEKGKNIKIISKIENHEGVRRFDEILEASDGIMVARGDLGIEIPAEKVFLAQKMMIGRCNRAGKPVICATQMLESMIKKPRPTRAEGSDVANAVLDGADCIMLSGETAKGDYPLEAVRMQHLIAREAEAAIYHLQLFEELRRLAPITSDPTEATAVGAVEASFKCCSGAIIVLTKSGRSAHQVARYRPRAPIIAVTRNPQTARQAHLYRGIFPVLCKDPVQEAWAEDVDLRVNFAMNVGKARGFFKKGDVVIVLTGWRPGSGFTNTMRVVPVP

binding [1]	binding [2]	binding [3]	Binder
binds			Flag-TRIB2 (protein, UniProt Q92519 1-343) MNIHRSTPITIARYGRSRNKTQDFEELSSIRSAEPSQSFSPNLGSPSPPETPNLSHCVSCIGKYLLLEPLEGDHVFRAVHLHSGEELVCKVFDISCYQESLAPCFCLSAHSNINQITEIILGETKAYVFFERSYGDMHSFVRTCKKLREEEAARLFYQIASAVAHCHDGGLVLRDLKLRKFIFKDEERTRVKLESLEDAYILRGDDDSLSDKHGCPAYVSPEILNTSGSYSGKAADVWSLGVMLYTMLVGRYPFHDIEPSSLFSKIRRGQFNIPETLSPKAKCLIRSILRREPSERLTSQEILDHPWFSTDFSVSNSAYGAKEVSDQLVPDVNMEENLDPFFN
	binds	binds	TRIB2, endogenous (protein, UniProt Q92519 1-343) MNIHRSTPITIARYGRSRNKTQDFEELSSIRSAEPSQSFSPNLGSPSPPETPNLSHCVSCIGKYLLLEPLEGDHVFRAVHLHSGEELVCKVFDISCYQESLAPCFCLSAHSNINQITEIILGETKAYVFFERSYGDMHSFVRTCKKLREEEAARLFYQIASAVAHCHDGGLVLRDLKLRKFIFKDEERTRVKLESLEDAYILRGDDDSLSDKHGCPAYVSPEILNTSGSYSGKAADVWSLGVMLYTMLVGRYPFHDIEPSSLFSKIRRGQFNIPETLSPKAKCLIRSILRREPSERLTSQEILDHPWFSTDFSVSNSAYGAKEVSDQLVPDVNMEENLDPFFN
	binds		GFP-TRIB2 (protein, UniProt Q92519 1-343) MNIHRSTPITIARYGRSRNKTQDFEELSSIRSAEPSQSFSPNLGSPSPPETPNLSHCVSCIGKYLLLEPLEGDHVFRAVHLHSGEELVCKVFDISCYQESLAPCFCLSAHSNINQITEIILGETKAYVFFERSYGDMHSFVRTCKKLREEEAARLFYQIASAVAHCHDGGLVLRDLKLRKFIFKDEERTRVKLESLEDAYILRGDDDSLSDKHGCPAYVSPEILNTSGSYSGKAADVWSLGVMLYTMLVGRYPFHDIEPSSLFSKIRRGQFNIPETLSPKAKCLIRSILRREPSERLTSQEILDHPWFSTDFSVSNSAYGAKEVSDQLVPDVNMEENLDPFFN
